Experimental data as given in article PMC10461479.
These are yes or no findings as the source states them, for the method shown. Binding seen in cells or lysates may run through a third protein. Some entries that bind do so weakly or less than the wild type.

By UniProt entry, the sequences of proteins in these tests, tags left out.
UniProt Q9NYV6: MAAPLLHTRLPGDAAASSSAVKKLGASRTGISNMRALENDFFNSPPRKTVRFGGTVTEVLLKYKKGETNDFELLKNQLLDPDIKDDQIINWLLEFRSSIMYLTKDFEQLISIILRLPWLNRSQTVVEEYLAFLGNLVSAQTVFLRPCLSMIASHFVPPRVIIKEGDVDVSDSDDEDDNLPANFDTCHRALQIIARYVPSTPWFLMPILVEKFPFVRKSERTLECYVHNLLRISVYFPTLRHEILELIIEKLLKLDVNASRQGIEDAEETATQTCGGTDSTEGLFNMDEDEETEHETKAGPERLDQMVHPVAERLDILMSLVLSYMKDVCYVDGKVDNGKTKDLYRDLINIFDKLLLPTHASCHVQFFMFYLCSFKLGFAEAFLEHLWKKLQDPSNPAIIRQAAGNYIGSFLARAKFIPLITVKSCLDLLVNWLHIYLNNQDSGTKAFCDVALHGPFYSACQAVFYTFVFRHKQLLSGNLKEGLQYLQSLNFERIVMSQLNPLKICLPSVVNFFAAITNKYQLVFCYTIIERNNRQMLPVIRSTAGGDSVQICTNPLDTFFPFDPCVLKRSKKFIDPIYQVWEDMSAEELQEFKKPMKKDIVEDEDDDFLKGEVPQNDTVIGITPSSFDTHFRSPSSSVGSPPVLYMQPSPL

Target: T1, TAF1A (TAFI48) (human (endogenous in HepG2)) (UniProt Q15573)
T1 sequence: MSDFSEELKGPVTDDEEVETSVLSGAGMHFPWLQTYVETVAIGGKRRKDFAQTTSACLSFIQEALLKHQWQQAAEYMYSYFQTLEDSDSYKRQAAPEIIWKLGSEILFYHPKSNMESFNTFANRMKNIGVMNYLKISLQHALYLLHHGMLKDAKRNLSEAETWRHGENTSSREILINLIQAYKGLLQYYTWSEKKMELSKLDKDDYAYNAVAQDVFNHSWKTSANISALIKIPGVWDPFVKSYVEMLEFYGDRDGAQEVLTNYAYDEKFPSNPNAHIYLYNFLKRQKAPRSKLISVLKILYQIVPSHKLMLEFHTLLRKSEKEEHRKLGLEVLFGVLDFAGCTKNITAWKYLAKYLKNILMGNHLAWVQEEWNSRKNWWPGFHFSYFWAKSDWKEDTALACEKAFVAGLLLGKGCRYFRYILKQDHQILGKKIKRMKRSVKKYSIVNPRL
Test: co-IP; endogenous TAF1A immunoprecipitated with anti-TAF1A antibody (Pierce Classic Magnetic IP/Co-IP Kit) from lysates of HepG2 cells transduced with scramble or TAF1B shRNA#6, 3 days after transduction; Western blot for RRN3 and UBF

- binding: binds
Substance: RRN3 (from UniProt Q9NYV6 1-651)
